Laboratory results published in the supplement of paper PMC10849652.
This is one part of the list.

By UniProt entry, the sequences of proteins in these tests, tags left out. Where a name states a change or a piece, a line headed by the entry shows the natural chain unless it says otherwise.
UniProt O60763: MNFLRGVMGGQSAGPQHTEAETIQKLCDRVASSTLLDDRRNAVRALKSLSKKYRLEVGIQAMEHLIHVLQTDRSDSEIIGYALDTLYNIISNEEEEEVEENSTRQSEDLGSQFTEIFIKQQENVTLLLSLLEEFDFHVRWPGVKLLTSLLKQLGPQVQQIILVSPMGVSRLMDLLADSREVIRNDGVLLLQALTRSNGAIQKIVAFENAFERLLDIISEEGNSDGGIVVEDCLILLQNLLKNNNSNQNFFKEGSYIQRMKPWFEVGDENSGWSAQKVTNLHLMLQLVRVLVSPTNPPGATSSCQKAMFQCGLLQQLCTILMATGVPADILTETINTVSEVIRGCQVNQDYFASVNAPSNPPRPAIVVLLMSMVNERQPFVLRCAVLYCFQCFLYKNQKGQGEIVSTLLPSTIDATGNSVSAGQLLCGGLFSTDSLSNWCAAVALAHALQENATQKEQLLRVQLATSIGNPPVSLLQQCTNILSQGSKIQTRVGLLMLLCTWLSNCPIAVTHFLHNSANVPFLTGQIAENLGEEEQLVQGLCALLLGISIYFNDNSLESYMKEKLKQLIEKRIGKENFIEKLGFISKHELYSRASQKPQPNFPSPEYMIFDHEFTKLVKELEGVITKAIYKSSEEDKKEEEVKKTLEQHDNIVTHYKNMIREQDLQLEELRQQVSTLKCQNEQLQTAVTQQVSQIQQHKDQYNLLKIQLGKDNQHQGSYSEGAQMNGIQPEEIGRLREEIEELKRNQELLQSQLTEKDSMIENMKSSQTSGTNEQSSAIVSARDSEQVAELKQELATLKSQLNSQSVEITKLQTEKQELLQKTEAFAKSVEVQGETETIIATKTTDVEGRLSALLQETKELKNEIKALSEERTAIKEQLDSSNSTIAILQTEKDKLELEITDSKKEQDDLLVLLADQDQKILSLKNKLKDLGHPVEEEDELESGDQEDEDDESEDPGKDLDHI
UniProt P11172: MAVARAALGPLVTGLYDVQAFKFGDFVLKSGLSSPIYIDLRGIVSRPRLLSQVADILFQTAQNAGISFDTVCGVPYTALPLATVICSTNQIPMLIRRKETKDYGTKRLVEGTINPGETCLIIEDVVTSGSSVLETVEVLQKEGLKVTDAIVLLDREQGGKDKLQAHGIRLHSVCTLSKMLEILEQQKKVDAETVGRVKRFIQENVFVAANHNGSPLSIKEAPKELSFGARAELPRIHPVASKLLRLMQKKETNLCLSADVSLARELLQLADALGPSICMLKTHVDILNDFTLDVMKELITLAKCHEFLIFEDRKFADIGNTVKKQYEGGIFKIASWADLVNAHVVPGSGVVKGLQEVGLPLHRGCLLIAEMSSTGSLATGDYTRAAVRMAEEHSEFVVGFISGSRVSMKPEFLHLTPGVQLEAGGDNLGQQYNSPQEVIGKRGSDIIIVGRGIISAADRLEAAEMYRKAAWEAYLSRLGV
UniProt Q9Y277: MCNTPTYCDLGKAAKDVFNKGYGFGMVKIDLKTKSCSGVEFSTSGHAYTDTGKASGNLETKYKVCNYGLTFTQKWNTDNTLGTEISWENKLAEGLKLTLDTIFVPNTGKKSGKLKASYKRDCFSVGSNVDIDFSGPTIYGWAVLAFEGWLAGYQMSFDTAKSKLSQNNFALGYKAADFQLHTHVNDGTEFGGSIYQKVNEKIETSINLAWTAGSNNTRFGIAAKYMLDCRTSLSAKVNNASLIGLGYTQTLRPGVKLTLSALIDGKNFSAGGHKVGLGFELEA
UniProt P09327: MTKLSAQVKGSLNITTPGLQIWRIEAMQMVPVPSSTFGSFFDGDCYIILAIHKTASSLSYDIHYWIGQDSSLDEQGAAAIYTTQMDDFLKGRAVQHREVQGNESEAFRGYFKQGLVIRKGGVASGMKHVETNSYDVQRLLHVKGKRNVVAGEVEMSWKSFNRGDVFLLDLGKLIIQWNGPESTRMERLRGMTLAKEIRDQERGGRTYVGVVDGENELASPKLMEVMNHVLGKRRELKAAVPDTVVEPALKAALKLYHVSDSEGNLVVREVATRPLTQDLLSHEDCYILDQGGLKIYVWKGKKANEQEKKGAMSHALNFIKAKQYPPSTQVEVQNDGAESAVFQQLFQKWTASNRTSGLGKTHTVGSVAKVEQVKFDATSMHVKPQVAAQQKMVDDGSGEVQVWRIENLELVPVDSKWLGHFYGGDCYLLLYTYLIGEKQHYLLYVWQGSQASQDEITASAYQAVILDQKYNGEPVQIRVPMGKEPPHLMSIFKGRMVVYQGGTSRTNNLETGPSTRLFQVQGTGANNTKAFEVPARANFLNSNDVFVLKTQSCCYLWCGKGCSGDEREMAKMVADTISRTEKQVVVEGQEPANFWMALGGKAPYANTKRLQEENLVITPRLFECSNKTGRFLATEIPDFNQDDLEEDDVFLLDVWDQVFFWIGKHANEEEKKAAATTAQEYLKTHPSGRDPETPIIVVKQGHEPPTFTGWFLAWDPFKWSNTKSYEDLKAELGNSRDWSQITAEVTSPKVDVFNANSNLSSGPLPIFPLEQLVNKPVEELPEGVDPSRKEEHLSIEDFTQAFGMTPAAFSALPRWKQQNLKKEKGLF
UniProt P45974: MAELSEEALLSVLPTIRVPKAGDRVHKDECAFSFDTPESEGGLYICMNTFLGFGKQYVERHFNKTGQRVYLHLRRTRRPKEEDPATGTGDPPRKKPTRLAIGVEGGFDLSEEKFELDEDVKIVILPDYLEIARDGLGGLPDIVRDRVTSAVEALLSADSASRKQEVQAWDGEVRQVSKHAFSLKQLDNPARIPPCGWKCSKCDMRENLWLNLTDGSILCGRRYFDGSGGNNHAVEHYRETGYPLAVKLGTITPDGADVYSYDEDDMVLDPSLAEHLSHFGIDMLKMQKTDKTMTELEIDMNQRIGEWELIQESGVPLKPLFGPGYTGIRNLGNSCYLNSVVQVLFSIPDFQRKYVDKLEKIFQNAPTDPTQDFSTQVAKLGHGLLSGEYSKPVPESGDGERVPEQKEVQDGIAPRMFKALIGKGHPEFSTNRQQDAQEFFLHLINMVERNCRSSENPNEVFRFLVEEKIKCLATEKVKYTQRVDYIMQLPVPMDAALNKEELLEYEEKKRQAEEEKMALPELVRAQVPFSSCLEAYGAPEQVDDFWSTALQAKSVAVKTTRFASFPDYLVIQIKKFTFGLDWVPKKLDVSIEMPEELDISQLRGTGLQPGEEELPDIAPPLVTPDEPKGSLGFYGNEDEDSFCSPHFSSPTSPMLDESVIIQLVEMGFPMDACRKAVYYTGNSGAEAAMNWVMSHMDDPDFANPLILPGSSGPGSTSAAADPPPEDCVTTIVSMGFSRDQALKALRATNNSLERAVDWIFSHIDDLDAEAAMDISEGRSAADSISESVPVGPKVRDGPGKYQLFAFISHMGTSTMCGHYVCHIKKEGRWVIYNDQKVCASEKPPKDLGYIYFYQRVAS
UniProt Q8TED0: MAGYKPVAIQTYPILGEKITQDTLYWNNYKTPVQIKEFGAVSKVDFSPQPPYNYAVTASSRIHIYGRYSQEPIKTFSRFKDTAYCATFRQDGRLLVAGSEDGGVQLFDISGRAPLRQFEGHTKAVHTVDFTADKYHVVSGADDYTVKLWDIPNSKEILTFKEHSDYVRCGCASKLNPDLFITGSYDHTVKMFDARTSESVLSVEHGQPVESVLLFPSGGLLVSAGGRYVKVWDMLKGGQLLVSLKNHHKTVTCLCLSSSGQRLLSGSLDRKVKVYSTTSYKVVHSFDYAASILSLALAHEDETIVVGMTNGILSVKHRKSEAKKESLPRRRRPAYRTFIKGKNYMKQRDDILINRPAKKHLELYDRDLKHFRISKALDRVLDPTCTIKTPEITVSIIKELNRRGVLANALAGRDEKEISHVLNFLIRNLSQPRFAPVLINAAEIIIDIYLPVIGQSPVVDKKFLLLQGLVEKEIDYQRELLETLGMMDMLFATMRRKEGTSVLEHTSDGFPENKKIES
UniProt P15498: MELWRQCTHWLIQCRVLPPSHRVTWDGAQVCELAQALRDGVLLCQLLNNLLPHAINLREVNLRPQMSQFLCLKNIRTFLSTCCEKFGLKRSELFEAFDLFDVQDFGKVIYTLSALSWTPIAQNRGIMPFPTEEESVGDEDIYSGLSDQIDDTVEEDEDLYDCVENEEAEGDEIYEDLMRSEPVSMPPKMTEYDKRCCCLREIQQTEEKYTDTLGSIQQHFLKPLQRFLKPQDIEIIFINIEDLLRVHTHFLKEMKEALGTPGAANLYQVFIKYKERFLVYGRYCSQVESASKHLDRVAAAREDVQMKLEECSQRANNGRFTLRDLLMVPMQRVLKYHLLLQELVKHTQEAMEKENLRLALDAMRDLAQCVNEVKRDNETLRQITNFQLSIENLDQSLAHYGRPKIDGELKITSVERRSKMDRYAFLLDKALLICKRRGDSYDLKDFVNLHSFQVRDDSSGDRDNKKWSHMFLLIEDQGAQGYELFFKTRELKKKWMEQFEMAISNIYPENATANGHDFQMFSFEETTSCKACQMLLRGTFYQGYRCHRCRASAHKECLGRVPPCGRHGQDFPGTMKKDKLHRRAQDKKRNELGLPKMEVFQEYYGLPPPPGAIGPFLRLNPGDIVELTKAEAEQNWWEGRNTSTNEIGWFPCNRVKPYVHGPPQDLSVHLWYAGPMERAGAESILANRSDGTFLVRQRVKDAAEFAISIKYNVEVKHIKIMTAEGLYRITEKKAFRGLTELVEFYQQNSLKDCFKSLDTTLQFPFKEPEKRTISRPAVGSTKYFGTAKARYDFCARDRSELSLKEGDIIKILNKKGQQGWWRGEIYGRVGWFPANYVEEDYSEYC
UniProt Q9Y5T5, whole entry, looked up: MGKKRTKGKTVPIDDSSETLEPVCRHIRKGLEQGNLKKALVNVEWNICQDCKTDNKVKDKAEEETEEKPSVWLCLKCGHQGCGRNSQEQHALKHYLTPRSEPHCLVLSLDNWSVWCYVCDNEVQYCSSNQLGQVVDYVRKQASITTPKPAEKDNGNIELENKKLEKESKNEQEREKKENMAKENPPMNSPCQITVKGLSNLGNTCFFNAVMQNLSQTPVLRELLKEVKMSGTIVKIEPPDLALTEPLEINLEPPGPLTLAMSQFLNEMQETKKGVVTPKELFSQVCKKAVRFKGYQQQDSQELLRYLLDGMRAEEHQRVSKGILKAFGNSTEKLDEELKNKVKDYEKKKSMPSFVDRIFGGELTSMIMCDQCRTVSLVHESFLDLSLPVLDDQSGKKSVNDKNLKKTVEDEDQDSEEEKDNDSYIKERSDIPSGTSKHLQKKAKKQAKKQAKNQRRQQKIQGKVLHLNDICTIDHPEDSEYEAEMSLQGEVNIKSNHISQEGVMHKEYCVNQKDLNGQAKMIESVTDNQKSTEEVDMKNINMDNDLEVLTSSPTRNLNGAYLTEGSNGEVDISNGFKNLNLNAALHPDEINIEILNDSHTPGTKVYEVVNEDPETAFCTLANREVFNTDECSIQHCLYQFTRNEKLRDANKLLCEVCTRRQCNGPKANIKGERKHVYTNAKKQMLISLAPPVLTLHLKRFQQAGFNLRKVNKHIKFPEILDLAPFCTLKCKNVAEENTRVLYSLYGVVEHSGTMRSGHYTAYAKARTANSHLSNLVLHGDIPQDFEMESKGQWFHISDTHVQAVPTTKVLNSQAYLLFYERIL
UniProt O14957: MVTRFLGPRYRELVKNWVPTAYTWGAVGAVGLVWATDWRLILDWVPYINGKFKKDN
UniProt Q9BRT2: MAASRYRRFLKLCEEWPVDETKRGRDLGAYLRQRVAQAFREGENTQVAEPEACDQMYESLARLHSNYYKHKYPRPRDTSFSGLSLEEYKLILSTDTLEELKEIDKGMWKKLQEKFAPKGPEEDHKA
UniProt Q969X6: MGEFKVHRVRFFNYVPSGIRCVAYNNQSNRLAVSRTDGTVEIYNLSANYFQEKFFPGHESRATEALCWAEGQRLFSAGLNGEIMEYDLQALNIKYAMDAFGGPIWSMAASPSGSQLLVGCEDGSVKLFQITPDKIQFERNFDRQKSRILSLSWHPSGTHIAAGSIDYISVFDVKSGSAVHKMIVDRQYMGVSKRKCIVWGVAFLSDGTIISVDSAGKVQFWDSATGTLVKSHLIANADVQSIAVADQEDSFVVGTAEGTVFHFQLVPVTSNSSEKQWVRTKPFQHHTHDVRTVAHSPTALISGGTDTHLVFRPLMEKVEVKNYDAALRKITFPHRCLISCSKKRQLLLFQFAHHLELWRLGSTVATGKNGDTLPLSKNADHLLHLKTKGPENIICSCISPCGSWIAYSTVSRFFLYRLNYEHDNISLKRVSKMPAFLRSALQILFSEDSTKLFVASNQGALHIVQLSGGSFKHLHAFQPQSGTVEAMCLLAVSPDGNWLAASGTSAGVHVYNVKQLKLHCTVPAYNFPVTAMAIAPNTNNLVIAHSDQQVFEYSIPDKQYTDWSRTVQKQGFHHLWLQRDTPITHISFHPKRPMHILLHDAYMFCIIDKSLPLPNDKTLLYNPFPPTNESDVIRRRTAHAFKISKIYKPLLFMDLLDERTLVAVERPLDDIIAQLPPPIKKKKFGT
UniProt P63027, whole entry, looked up: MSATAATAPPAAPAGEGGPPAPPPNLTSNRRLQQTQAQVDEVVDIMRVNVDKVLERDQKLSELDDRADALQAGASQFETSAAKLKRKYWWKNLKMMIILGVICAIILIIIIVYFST

How the values were obtained:
Test in all cases: log2 fold change, soluble protein after heating vs DMSO (PISA); higher = thermal stabilisation; K562 lysate, 10 uM; active = over 0.2 and 3.5 SD of the protein, either way, in both replicates (recomputed)
[1] = compound: NCC(=O)Nc1ccc(-n2nc(C(F)(F)F)cc2-c2ccc3c(ccc4ccccc43)c2)cc1
Method in brief: (§1)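 Thermal stability, expressed as log-two fold change relative to solvent controls, is given from duplicates. Crude K562 extract in PBS pH 7.4 with 1 mM MgCl2, at 1 mg/mL protein, was treated with 10 μM compound for 30 min and heated in aliquots for 3 min across 48°C-58°C. After pooling, adjustment to 0.5% NP-40 at 4°C and centrifugation at 21,000xg for 90 min, supernatant protein was measured by TMTpro 16plex LC-MS/MS with channel sums equalised.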

vorinostat = compound: O=C(CCCCCCC(=O)Nc1ccccc1)NO [vorinostat]
Method in brief: as §1

silmitasertib = compound: O=C(O)c1ccc2c(c1)nc(Nc1cccc(Cl)c1)c1ccncc12 [silmitasertib]
Method in brief: as §1

[2] = compound: O=C1NC(=O)C(c2cnc3ccccn23)=C1c1cn2c3c(cc(F)cc13)CN(C(=O)N1CCCCC1)CC2
Method in brief: as §1

entospletinib = compound: c1cn2cc(-c3ccc4cn[nH]c4c3)nc(Nc3ccc(N4CCOCC4)cc3)c2n1 [entospletinib]
Method in brief: as §1

Measured: log2 fold change

USO1 isoform 2 (UniProt O60763)
inactive: [1] 0.01 | vorinostat 0.051 | silmitasertib -0.005 | [2] -0.004 | entospletinib -0.01

USP8 (UniProt P40818)
active: vorinostat -0.324
inactive: [1] 0.012 | silmitasertib 0.013 | [2] 0.009 | entospletinib 0.012

USP24 (UniProt Q9UPU5)
inactive: [1] 0.009 | vorinostat -0.077 | silmitasertib 0.044 | [2] -0.028 | entospletinib 0.008

Reprinted from the results shown (2 entries):
USP8 (UniProt P40818)
active: vorinostat -0.324
inactive: [1] 0.012 | silmitasertib 0.013 | [2] 0.009 | entospletinib 0.012

USP24 (UniProt Q9UPU5)
inactive: [1] 0.009 | vorinostat -0.077 | silmitasertib 0.044 | [2] -0.028 | entospletinib 0.008

The list goes on.

UMPS (UniProt P11172)
inactive: [1] -0.044 | vorinostat 0.016 | silmitasertib 0.027 | [2] -0.016 | entospletinib 0.018

UGT8 (UniProt Q16880)
inactive: [1] 0.013 | vorinostat 0.223 | silmitasertib -0.134 | [2] 0.022 | entospletinib 0.034

USP10 isoform 2 (UniProt Q14694)
active: vorinostat -0.294
inactive: [1] 0.022 | silmitasertib 0 | [2] -0.002 | entospletinib -0.002

VDAC3 (UniProt Q9Y277)
inactive: [1] 0.007 | vorinostat 0.101 | silmitasertib -0.026 | [2] -0.011 | entospletinib 0.012

VCL (UniProt P18206)
inactive: [1] -0.001 | vorinostat 0.106 | silmitasertib -0.018 | [2] -0.008 | entospletinib -0.003

VIL1 (UniProt P09327)
inactive: [1] 0.053 | vorinostat -0.114 | silmitasertib 0.136 | [2] 0.054 | entospletinib 0.004

USP5 isoform 2 (UniProt P45974)
inactive: [1] 0.013 | vorinostat -0.133 | silmitasertib 0.02 | [2] -0.016 | entospletinib -0.016

UEVLD (UniProt Q8IX04)
inactive: [1] 0.074 | vorinostat 0.074 | silmitasertib -0.035 | [2] -0.034 | entospletinib -0.027

VCPIP1 (UniProt Q96JH7)
inactive: [1] 0.007 | silmitasertib 0.029 | [2] -0.021 | entospletinib 0.006
active: vorinostat 0.894

UTP15 (UniProt Q8TED0)
inactive: [1] -0.006 | vorinostat 0.008 | silmitasertib -0.002 | [2] 0.014 | entospletinib 0.028

USP25 (UniProt Q9UHP3)
inactive: [1] -0.01 | vorinostat 0.041 | silmitasertib 0.038 | [2] -0.014 | entospletinib -0.005

UPRT (UniProt Q96BW1)
inactive: [1] 0.08 | vorinostat -0.081 | silmitasertib 0.075 | [2] 0.064 | entospletinib 0.011

USP4 (UniProt Q13107)
inactive: [1] 0.018 | vorinostat -0.253 | silmitasertib 0.045 | [2] -0.055 | entospletinib 0.017

VDAC1 (UniProt P21796)
inactive: [1] 0.015 | vorinostat 0.148 | silmitasertib -0.019 | [2] 0.007 | entospletinib -0.005

USP28 isoform 2 (UniProt Q96RU2)
inactive: [1] 0.021 | vorinostat -0.141 | silmitasertib 0.051 | [2] 0.02 | entospletinib -0.007

USP3 (UniProt Q9Y6I4)
inactive: [1] 0.015 | silmitasertib -0.026 | [2] 0.015 | entospletinib -0.013
active: vorinostat -0.469

VAV1 (UniProt P15498)
inactive: [1] -0.003 | silmitasertib 0 | [2] -0.027 | entospletinib 0.004
active: vorinostat -0.268

VIM (UniProt P08670)
inactive: [1] 0 | vorinostat -0.012 | silmitasertib -0.005 | [2] -0.048 | entospletinib -0.031

UTP6 (UniProt Q9NYH9)
inactive: [1] 0.013 | vorinostat -0.296 | silmitasertib -0.035 | [2] 0.022 | entospletinib 0.007

VARS2, A0A0G2JL52
inactive: [1] -0.012 | vorinostat -0.088 | silmitasertib 0.009 | [2] -0.003 | entospletinib -0.02

USP16 (UniProt Q9Y5T5)
active: vorinostat -0.272
inactive: [1] 0.019 | silmitasertib 0.012 | [2] -0.019 | entospletinib -0.031

UNC119B (UniProt A6NIH7)
inactive: [1] -0.076 | vorinostat 0.181 | silmitasertib -0.049 | [2] -0.023 | entospletinib -0.039

USP7 (UniProt Q93009)
inactive: [1] 0.009 | vorinostat -0.18 | silmitasertib 0.011 | [2] -0.019 | entospletinib 0.014

VDAC2 isoform 2 (UniProt P45880)
inactive: [1] 0.001 | vorinostat 0.181 | silmitasertib 0.001 | [2] 0.012 | entospletinib 0.002

UFC1 (UniProt Q9Y3C8)
inactive: [1] 0.067 | vorinostat 0.061 | silmitasertib 0.005 | [2] 0.031 | entospletinib -0.025

USP34 (UniProt Q70CQ2)
active: vorinostat -0.208
inactive: [1] 0.005 | silmitasertib 0.05 | [2] -0.012 | entospletinib -0.005

VANGL1 (UniProt Q8TAA9)
inactive: [1] -0.04 | vorinostat 0.085 | silmitasertib 0.159 | [2] -0.031 | entospletinib -0.009

USP9X (UniProt Q93008)
inactive: [1] 0.011 | silmitasertib 0.028 | [2] -0.012 | entospletinib 0
active: vorinostat -0.466

URB1 (UniProt O60287)
inactive: [1] 0.04 | vorinostat -0.059 | silmitasertib 0.023 | [2] 0.006 | entospletinib 0.004

UQCR11 (UniProt O14957)
inactive: [1] -0.001 | vorinostat 0.197 | silmitasertib -0.019 | [2] 0.087 | entospletinib -0.011

ULBP1 (UniProt Q9BZM6)
inactive: [1] 0.071 | vorinostat 0.045 | silmitasertib 0.007 | [2] -0.041 | entospletinib 0.035

UFL1 (UniProt O94874)
inactive: [1] -0.007 | vorinostat 0.039 | silmitasertib 0.046 | [2] -0.013 | entospletinib 0.031

UQCC2 (UniProt Q9BRT2)
inactive: [1] -0.019 | vorinostat 0.121 | silmitasertib -0.021 | [2] -0.06 | entospletinib -0.039

VHL (UniProt P40337)
inactive: [1] 0.015 | vorinostat -0.289 | silmitasertib -0.038 | [2] -0.011 | entospletinib -0.001

UTP18 (UniProt Q9Y5J1)
inactive: [1] 0.045 | vorinostat -0.078 | silmitasertib -0.014 | [2] 0.029 | entospletinib -0.136

USP48 (UniProt Q86UV5)
inactive: [1] -0.054 | silmitasertib 0.07 | [2] 0.034 | entospletinib -0.102
active: vorinostat -0.528

VBP1 (UniProt P61758)
inactive: [1] -0.009 | vorinostat 0.056 | silmitasertib 0.007 | [2] 0.006 | entospletinib -0.003

UQCRC2 (UniProt P22695)
inactive: [1] 0.01 | vorinostat 0.123 | silmitasertib -0.013 | [2] 0.03 | entospletinib 0.007

UGGT1 (UniProt Q9NYU2)
inactive: [1] 0.008 | vorinostat 0.112 | silmitasertib -0.008 | [2] -0.004 | entospletinib 0.008

USP11 (UniProt P51784)
inactive: [1] 0.052 | vorinostat -0.123 | silmitasertib 0.057 | [2] 0.015 | entospletinib 0.038

UXS1 isoform 2 (UniProt Q8NBZ7)
inactive: [1] -0.01 | vorinostat 0.059 | silmitasertib -0.006 | [2] 0.004 | entospletinib -0.077

ULBP2 (UniProt Q9BZM5)
inactive: [1] 0.128 | vorinostat 0.113 | silmitasertib -0.022 | [2] -0.031 | entospletinib -0.091

UQCRFS1 (UniProt P47985)
inactive: [1] 0.016 | vorinostat 0.066 | silmitasertib -0.011 | [2] 0.004 | entospletinib 0.01

UTP4 (UniProt Q969X6)
inactive: [1] -0.022 | vorinostat 0.037 | silmitasertib 0.015 | [2] -0.039 | entospletinib -0.058

USP39 (UniProt Q53GS9)
inactive: [1] 0.021 | vorinostat -0.031 | silmitasertib 0.003 | [2] -0.028 | entospletinib -0.001

UHRF1BP1 (UniProt Q6BDS2)
inactive: [1] 0.005 | vorinostat -0.044 | silmitasertib -0.068 | [2] -0.011 | entospletinib 0.009

VAT1 (UniProt Q99536)
inactive: [1] 0.019 | vorinostat 0.124 | silmitasertib -0.043 | [2] 0.001 | entospletinib 0.001

USP14 (UniProt P54578)
inactive: [1] 0.022 | vorinostat 0.06 | silmitasertib -0.005 | [2] 0.004 | entospletinib -0.01

UNK (UniProt Q9C0B0)
inactive: [1] 0.027 | vorinostat -0.024 | silmitasertib -0.013 | [2] 0.049 | entospletinib -0.011

VAMP2 (UniProt P63027)
inactive: [1] 0.071 | vorinostat 0.016 | silmitasertib -0.008 | [2] 0.132 | entospletinib -0.054
